Results reported in the supplement of paper PMC10849652.
The list shows a part of the results.

Sequences of proteins named here, by UniProt entry; tags and fusion partners are left off. A change or cut given only in a name is not applied to a line headed by its entry.
UniProt P10636, whole entry, looked up: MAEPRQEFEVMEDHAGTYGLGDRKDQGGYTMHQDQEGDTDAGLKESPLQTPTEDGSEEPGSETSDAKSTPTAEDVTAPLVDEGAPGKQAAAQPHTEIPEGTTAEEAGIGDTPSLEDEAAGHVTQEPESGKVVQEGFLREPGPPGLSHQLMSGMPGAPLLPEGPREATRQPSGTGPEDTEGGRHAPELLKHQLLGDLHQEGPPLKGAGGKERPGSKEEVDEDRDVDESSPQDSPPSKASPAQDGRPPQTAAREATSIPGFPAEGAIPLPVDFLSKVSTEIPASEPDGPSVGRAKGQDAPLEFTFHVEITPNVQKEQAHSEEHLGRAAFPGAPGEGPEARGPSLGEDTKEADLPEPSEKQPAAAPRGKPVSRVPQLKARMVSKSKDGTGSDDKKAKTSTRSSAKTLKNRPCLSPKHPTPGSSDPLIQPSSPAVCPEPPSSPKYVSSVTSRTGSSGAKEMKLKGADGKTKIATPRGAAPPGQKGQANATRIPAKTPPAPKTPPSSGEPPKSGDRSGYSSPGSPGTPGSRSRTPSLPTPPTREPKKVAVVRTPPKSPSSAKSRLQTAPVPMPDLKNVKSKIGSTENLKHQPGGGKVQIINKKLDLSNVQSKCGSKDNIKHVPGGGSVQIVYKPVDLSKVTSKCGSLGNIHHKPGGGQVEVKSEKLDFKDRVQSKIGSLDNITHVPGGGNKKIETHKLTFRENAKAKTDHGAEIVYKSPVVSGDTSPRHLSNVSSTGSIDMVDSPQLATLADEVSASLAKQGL
UniProt Q8TDW0: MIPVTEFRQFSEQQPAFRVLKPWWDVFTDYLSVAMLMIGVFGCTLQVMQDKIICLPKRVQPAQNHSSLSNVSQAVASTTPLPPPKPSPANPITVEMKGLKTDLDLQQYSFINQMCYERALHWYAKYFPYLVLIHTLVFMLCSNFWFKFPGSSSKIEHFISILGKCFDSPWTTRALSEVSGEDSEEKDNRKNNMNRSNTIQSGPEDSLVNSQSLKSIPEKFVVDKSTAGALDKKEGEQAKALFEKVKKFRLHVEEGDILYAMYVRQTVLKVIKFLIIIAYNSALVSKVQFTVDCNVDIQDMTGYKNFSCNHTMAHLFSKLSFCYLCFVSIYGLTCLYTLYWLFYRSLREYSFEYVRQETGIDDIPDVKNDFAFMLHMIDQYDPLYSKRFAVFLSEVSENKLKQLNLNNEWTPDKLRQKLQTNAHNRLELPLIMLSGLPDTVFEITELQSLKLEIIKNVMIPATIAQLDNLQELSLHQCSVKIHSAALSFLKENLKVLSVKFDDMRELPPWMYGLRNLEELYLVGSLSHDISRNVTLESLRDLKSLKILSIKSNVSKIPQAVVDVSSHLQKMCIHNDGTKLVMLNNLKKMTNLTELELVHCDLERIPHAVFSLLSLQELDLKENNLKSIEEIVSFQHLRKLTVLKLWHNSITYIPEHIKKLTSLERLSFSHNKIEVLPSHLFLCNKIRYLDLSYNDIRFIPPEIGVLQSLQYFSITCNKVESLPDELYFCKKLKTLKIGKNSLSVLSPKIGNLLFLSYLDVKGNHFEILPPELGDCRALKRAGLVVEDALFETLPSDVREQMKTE
UniProt P07948: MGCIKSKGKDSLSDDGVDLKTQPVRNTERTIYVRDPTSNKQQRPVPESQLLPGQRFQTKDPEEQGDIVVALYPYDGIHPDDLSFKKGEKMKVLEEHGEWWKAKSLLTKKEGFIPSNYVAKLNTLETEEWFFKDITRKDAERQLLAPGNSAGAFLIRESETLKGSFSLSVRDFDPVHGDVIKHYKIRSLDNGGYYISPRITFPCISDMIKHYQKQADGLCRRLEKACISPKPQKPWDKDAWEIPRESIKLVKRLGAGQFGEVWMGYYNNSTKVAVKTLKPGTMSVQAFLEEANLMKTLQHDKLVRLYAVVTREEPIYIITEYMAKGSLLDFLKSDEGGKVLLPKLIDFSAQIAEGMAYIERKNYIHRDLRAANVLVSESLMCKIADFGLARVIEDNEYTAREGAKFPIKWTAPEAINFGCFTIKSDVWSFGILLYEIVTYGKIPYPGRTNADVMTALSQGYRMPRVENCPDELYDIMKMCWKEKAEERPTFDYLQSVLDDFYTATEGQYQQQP
UniProt Q16706: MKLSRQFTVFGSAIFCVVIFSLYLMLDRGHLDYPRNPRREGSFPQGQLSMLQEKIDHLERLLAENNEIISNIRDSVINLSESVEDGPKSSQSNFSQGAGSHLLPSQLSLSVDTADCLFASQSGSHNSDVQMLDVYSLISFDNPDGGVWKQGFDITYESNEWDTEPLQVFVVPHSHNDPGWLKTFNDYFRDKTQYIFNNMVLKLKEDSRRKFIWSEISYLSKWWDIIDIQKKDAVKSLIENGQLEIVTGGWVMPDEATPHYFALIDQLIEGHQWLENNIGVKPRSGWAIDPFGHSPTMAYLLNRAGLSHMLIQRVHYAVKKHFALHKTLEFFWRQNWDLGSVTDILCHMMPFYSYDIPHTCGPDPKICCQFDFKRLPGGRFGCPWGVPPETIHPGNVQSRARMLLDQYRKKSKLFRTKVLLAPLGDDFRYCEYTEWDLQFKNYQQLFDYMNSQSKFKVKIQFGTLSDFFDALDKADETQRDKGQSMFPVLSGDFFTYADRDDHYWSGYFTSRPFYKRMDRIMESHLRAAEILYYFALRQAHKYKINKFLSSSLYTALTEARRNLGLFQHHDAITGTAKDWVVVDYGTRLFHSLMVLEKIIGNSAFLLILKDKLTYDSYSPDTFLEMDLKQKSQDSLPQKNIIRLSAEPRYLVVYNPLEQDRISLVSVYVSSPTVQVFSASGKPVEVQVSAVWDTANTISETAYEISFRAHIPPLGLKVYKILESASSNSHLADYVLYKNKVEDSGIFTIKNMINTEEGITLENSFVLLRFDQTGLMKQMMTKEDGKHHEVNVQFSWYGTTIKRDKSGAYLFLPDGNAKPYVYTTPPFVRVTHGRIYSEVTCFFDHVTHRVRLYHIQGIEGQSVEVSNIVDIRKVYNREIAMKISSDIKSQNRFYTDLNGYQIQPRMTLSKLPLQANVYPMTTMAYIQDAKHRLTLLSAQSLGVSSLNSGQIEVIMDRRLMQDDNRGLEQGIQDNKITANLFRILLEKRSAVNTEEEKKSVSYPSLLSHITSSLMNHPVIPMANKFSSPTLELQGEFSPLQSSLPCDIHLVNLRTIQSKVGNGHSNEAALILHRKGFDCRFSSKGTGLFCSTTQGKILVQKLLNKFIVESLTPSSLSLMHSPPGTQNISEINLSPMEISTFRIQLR
UniProt Q9NX47: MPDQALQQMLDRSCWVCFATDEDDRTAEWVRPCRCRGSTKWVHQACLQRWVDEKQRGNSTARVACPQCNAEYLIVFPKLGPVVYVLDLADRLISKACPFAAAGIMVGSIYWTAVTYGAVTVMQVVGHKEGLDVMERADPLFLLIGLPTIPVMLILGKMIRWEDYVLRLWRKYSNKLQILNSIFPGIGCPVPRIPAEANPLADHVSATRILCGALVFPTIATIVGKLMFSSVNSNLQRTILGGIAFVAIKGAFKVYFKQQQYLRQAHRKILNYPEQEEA
UniProt Q9UKM7: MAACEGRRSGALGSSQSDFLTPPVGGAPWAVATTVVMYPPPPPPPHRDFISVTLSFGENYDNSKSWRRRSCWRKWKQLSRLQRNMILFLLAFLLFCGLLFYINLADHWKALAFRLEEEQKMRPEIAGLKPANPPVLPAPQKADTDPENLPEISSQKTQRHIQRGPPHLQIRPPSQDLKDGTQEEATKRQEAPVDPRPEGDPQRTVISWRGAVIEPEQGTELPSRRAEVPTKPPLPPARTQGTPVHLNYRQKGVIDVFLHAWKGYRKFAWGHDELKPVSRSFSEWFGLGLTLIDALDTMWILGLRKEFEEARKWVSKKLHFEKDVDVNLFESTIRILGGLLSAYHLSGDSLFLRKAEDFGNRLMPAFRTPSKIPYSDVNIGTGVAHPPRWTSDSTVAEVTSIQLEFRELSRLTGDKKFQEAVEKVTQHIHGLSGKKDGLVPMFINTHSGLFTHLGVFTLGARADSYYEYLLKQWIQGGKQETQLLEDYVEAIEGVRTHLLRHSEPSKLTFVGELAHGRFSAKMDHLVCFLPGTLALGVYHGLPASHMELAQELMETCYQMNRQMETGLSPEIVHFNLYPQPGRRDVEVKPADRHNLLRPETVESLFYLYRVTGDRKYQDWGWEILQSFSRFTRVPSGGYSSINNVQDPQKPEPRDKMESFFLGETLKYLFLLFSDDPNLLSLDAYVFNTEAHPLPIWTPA
UniProt Q16659, whole entry, looked up: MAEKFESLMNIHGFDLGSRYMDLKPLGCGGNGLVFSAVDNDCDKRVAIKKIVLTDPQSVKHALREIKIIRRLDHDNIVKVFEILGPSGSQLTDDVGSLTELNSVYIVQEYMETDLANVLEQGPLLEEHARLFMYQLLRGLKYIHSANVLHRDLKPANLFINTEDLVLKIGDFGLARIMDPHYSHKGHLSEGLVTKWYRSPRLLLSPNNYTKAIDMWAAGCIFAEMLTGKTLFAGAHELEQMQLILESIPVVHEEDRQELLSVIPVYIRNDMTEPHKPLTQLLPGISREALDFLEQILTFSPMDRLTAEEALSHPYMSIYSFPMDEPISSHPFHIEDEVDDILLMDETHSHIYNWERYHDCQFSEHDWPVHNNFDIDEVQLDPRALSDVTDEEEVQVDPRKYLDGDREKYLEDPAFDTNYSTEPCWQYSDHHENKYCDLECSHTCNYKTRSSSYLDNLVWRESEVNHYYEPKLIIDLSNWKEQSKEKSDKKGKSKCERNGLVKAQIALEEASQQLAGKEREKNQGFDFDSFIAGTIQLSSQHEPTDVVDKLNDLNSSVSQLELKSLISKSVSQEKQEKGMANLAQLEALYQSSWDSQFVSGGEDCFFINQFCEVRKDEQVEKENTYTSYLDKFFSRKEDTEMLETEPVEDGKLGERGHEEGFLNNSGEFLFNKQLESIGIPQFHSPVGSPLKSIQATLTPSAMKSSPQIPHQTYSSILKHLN
UniProt O75608: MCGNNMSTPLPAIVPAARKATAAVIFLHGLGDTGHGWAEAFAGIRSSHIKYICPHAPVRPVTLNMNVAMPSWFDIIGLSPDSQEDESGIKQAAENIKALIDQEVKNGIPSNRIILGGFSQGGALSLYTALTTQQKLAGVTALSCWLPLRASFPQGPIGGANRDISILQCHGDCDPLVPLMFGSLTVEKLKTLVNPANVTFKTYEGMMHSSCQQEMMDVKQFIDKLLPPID
UniProt Q8IV50: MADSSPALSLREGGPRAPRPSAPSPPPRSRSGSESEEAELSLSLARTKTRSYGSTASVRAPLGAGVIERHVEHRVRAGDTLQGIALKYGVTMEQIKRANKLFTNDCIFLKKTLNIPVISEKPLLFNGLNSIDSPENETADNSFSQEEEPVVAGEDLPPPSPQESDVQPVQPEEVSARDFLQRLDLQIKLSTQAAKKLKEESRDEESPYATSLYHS

Columns and labels:
Assay in all cases: log2 fold change, soluble protein after heating vs DMSO (PISA); higher = thermal stabilisation; K562 cells, 10 uM, 30 min; active = over 0.2 and 3.5 SD of the protein, either way, in both replicates (recomputed)
[1] = compound: C#Cc1cccc(Nc2ncnc3cc(OCCOC)c(OCCOC)cc23)c1 [erlotinib]
Outline: (§1)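 Aliquots of K562 cells (2×10^6 cells/mL) treated with 10 μM compound for 30 min were heated for 3 min over 48°C-58°C. After pooling and extraction in PBS with 0.5% NP-40 at 4°C, soluble protein from a 21,000xg, 90 min spin was quantified by TMTpro 16plex LC-MS/MS with channel sums equalised. Thermal stability is expressed against control samples, from duplicates, as a log2 fold change.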

[2] = compound: C/C(=N\NC(=O)C1=CC(=CC=C1)S(=O)(=O)N2CCOCC2)/C3=C(C=CC(=C3)Cl)O
Outline: as §1

[3] = compound: C1=CC(=C(C=C1Cl)C2=NC3=NC=CN=C3C(=N2)NC4=CC=NC=C4)F
Outline: as §1

[4] = compound: C1=CC(=CC=C1C2=NC3=C(N2)C=C(C=C3)C(=O)N)OC4=CC=C(C=C4)Cl
Outline: as §1

[5] = compound: C1=CC2=C(C=CC(=C2)/C=C\3/C(=O)NC(=NCC4=CC=CS4)S3)N=C1
Outline: as §1

[6] = compound: C1=CC2=NC=CN=C2C=C1/C=C/3\C(=O)NC(=O)S3
Outline: as §1

[7] = compound: C1=CC=C2C(=C1)C3=NNC4=CC=CC(=C43)C2=O
Outline: as §1

[8] = compound: C1=CC=C(C=C1)C2=NC(=C(N2)C3=CC=NC=C3)C4=CC(=C(C=C4)Cl)O
Outline: as §1

[9] = compound: C1CCN(C1)C(=O)NC2=CC=CC(=C2)NC3=NC=C(C(=N3)NCCC4=CN=CN4)Br
Outline: as §1

[10] = compound: C1CN(CCC1(CC2=CC=C(C=C2)Cl)N)C3=NC=NC4=C3C=CN4
Outline: as §1

Measured: log2 fold change

MAPT isoform 9 (UniProt P10636)
inactive: [1] 0.155 | [2] -0.072 | [3] -0.116 | [4] -0.003 | [5] -0.057 | [6] 0.063 | [7] -0.056

LRRC8C (UniProt Q8TDW0)
inactive: [1] 0.009 | [2] -0.058 | [3] -0.049 | [4] -0.073 | [5] -0.131 | [8] -0.09 | [7] 0.031

LYN isoform 2 (UniProt P07948)
inactive: [1] -0.387 | [2] 0.117 | [3] -0.234 | [4] -0.152 | [5] 0.146 | [7] -0.163

MAK16 (UniProt Q9BXY0)
inactive: [1] 0.087 | [2] -0.1 | [3] -0.172 | [4] 0.108 | [5] 0.01 | [6] 0.067 | [8] -0.02 | [7] 0.001 | [9] 0.024 | [10] -0.011

MAP3K20 isoform 2 (UniProt Q9NYL2)
inactive: [1] -0.002 | [2] -0.128 | [3] 0.051 | [4] 0.052 | [5] -0.091 | [7] -0.168 | [9] -0.004 | [10] 0.007

MAN2A1 (UniProt Q16706)
inactive: [1] -0.023 | [2] -0.001 | [3] -0.028 | [4] 0.027 | [5] 0.032 | [6] 0.027 | [8] -0.011 | [7] -0.044 | [9] 0.001 | [10] 0.019

MARCHF5 (UniProt Q9NX47)
inactive: [1] 0.074 | [2] -0.007 | [3] -0.038 | [4] 0.039 | [5] -0.01 | [6] 0 | [8] -0.041 | [7] -0.048 | [9] -0.026 | [10] 0.056

MAN1B1 (UniProt Q9UKM7)
inactive: [1] 0.103 | [2] 0.022 | [3] 0.029 | [4] 0.016 | [5] 0.06 | [6] 0.005 | [8] -0.014 | [7] 0.026 | [9] -0.04 | [10] -0.019

2 entries drawn at random from the list so far:
MAN1B1 (UniProt Q9UKM7)
inactive: [1] 0.103 | [2] 0.022 | [3] 0.029 | [4] 0.016 | [5] 0.06 | [6] 0.005 | [8] -0.014 | [7] 0.026 | [9] -0.04 | [10] -0.019

MAN2A1 (UniProt Q16706)
inactive: [1] -0.023 | [2] -0.001 | [3] -0.028 | [4] 0.027 | [5] 0.032 | [6] 0.027 | [8] -0.011 | [7] -0.044 | [9] 0.001 | [10] 0.019

Further entries

MAPK6 (UniProt Q16659)
inactive: [1] 0.015 | [2] 0.018 | [3] -0.031 | [4] 0.045 | [5] 0.044 | [6] -0.145 | [7] 0.146 | [9] -0.053 | [10] -0.058

LYPLA1 (UniProt O75608)
inactive: [1] -0.04 | [2] 0.032 | [3] 0.132 | [4] 0.012 | [5] 0.076 | [6] 0.009 | [8] 0.057 | [7] -0.022 | [9] -0.011 | [10] 0.004

LYSMD2 (UniProt Q8IV50)
inactive: [1] 0.036 | [2] 0.021 | [3] -0.007 | [4] 0.006 | [5] 0.024 | [6] 0.006 | [8] -0.05 | [7] -0.013 | [9] -0.005 | [10] -0.03
